The test addresses T1, inceptor–HaloTag fusion protein (FRET experiments, INS-1E cells) (human) (UniProt Q6UXG2).
T1 sequence (chain, HaloTag ligand tetramethylrhodamine (TMR) on the HaloTag): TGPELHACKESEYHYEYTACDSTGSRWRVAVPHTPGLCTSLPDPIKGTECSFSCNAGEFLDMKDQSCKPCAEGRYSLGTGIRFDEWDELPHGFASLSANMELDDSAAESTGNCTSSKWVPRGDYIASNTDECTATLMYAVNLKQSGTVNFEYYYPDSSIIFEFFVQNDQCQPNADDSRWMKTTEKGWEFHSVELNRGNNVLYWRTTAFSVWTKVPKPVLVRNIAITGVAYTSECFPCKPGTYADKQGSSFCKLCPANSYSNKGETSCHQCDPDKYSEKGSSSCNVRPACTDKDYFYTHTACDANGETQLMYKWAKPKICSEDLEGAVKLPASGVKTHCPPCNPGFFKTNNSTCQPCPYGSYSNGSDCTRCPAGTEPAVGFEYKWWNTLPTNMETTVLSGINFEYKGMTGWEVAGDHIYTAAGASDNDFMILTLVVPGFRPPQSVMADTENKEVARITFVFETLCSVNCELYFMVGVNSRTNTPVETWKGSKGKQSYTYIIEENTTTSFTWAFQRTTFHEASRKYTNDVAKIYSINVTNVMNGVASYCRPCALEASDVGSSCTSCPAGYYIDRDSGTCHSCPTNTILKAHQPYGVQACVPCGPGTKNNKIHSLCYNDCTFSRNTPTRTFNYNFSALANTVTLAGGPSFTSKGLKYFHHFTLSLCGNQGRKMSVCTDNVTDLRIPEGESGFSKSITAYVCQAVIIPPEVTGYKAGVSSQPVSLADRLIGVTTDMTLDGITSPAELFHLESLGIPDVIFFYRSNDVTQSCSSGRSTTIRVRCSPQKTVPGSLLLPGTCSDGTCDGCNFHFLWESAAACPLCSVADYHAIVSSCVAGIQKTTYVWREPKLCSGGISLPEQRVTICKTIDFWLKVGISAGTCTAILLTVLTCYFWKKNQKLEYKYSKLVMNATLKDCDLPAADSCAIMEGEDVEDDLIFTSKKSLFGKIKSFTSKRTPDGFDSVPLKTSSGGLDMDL
The experiment in a line: FRET or BRET; live INS-1E cells overexpressing inceptor–HaloTag labelled with TMR; 100 nmol/l INS-630 and 0, 10, 100 and 1,000 nmol/l proinsulin in the medium for 40 min; corrected FRET efficiency by confocal imaging; only the binder purified.

Chains of the proteins cited; added tags and fusions are not shown. Lines headed by an entry give the natural chain unless they say otherwise; changes in a name come on top.
UniProt P01308: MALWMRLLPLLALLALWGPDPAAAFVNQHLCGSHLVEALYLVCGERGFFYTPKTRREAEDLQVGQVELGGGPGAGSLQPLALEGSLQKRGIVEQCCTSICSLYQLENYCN

Results are given in words; binding and its absence hold for the method and conditions named. In cells and extracts the contact can be indirect. Some results given as binding are weak or reduced against the parent protein; the word gives no strength. Tags and fused reporters may be left off the sequences shown.

Turning to “insulin–bodipy 630/650 (from UniProt P01308 25-54; P01308 90-110) (ligand)”, the binding entry was “binds”.
